Chains of the proteins cited; added tags and fusions are not shown. Lines headed by an entry give the natural chain unless they say otherwise; changes in a name come on top.
UniProt Q9Y3I1: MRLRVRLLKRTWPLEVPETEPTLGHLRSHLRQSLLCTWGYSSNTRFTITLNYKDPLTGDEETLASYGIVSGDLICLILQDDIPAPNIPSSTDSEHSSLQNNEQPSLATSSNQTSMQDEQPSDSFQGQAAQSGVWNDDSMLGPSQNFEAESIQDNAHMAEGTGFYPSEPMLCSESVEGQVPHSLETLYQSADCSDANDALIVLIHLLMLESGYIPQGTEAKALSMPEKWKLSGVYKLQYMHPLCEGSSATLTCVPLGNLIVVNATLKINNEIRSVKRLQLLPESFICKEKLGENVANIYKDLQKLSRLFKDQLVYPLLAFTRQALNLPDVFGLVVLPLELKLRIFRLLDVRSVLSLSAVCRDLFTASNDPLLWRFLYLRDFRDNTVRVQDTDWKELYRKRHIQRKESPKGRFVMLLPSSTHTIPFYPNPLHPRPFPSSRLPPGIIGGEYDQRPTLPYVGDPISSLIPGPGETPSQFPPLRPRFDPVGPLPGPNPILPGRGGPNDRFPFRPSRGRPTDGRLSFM
UniProt Q9NQG6: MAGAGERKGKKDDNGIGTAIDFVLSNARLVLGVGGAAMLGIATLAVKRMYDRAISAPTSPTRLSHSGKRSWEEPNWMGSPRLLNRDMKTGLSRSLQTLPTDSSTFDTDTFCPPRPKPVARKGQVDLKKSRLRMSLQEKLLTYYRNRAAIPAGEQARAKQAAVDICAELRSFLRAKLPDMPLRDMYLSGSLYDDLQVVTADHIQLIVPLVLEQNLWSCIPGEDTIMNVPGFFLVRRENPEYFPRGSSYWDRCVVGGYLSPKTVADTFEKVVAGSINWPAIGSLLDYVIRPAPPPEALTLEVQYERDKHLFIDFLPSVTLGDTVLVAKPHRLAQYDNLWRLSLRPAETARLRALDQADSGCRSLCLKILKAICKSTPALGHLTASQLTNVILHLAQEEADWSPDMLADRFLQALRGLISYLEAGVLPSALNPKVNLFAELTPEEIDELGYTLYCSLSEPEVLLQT

In article doi:10.1101/2021.12.22.473884:

B1: MiD49-Myc (protein, UniProt Q96C03 1-454)
chain: MAEFSQKRGKRRSDEGLGSMVDFLLANARLVLGVGGAAVLGIATLAVKRFIDRATSPRDEDDTKADSWKELSLLKATPHLQPRPPPAALSQPVLPLAPSSSAPEGPAETDPEVTPQLSSPAPLCLTLQERLLAFERDRVTIPAAQVALAKQLAGDIALELQAYFRSKFPELPFGAFVPGGPLYDGLQAGAADHVRLLVPLVLEPGLWSLVPGVDTVARDPRCWAVRRTQLEFCPRGSSPWDRFLVGGYLSSRVLLELLRKALAASVNWPAIGSLLGCLIRPSMASEELLLEVQHERLELTVAVLVAVPGVDADDRLLLAWPLEGLAGNLWLQDLYPVEAARLRALDDHDAGTRRRLLLLLCAVCRGCSALGQLGRGHLTQVVLRLGEDNVDWTEEALGERFLQALELLIGSLEQASLPCHFNPSVNLFSSLREEEIDDIGYALYSGLQEPEGLL

Target: FLAG-Fbxo7 ΔF-box (human) (UniProt Q9Y3I1)
Experiment: co-IP

| Molecule | binding |
| --- | --- |
| MiD51-Myc (from UniProt Q9NQG6 1-463) | binds |
| B1 | binds |

These are yes or no findings as the source states them, for the method shown. In cells and extracts the contact can be indirect. Binding can be weak; no strength is given. Sequences can lack the tags named with a protein.
